# The list shows a part of the results. The main result of the screen is listed elsewhere. These columns were measured beside it and carry no call. The list favours compounds with an active or inconclusive main result. Potencies come from curve fits of mixed quality, noted in brackets.
# Test: qHTS Assay to Find Inhibitors of Chronic Active B-Cell Receptor Signaling
# Details: ABC-DLBCL IkBa-CBG/CBR reporter, luminescence ratio (green luciferase fused to IkBa over red control in TMD8 lymphoma cells), 4 h
# Outline: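 TMD8 human ABC-DLBCL cells with doxycycline-inducible IκBα–green luciferase fusion and unfused red luciferase, in 0.5% FBS medium; compounds up to 46 uM, 4 h at 37C. Green/red luminescence ratio, filter-overlap corrected, fitted to concentration-response curves.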
# [1] = measured here: CBR red luminescence, cell number
# [2] = measured here: IkBa-CBG green luminescence
SMILES,AC50 [1],AC50 [2]
Cn1c(N)c(C(=O)COC(=O)[C@H](Cc2ccccc2)N2C(=O)c3ccccc3C2=O)c(=O)n(C)c1=O,"1.16 µM [rising, full curve, poor fit]",
CSc1ccc(CN2C(=O)NC3(CCCCCCC3)C2=O)cc1,"17.8 µM [rising, partial curve, poor fit]",
Cc1oc(-c2ccccc2)cc1C(=O)NCc1ccncc1,"2.24 µM [rising, full curve]",
Cc1nc([N+](=O)[O-])c(Sc2nc3ccccc3[nH]2)n1Cc1ccccc1,"7.31 µM [falling, partial curve, poor fit]",
O=C(N/N=C/c1ccccc1O)C(=O)Nc1ccccn1,"1.41 µM [falling, full curve]",
CC1=NN(C(N)=S)C(=O)C1N=Nc1cccc2ccccc12 (stereo not drawn),"7.08 µM [rising, full curve, poor fit]",
O=[N+]([O-])c1ccc(N=Nc2c(Cl)cc(O)cc2Cl)cc1,"0.447 µM [rising, partial curve, poor fit]",
CSc1cccc(NC(=S)N2CCCN(Cc3cccc(Cl)c3)C2)c1,"35.5 µM [falling, single point]",
N/C(CCS(=O)(=O)c1ccc(Cl)cc1)=N\OC(=O)c1ccccc1Cl,"17.8 µM [rising, partial curve, poor fit]",
O=C(Nc1cc2c3c(c1)CC(=O)N3CCC2)C1CC1,"18.4 µM [rising, partial curve]",
CCS(=O)(=O)c1nc(S(=O)(=O)c2ccc(C)cc2)c(N2CCC3(CC2)OCCO3)s1,"17.8 µM [falling, partial curve, poor fit]",
O=S1(=O)CC(O)C(N(CCO)C(=S)Nc2ccccc2)C1 (stereo not drawn),"15.8 µM [rising, single point]",
Cc1cccc(N2CCN(S(=O)(=O)c3ccc4c(c3)NC(=O)CS4)CC2)c1C,"7.94 µM [falling, partial curve]",
COCCCn1c(C23CC4CC(CC(C4)C2)C3)n[nH]c1=S,"12.6 µM [rising, single point]",
COc1ccc(/C=C(\C#N)C(=O)OC2CCOC2=O)cc1 (stereo not drawn),"2.51 µM [rising, full curve, poor fit]",
COc1ccc(NC(=O)c2ccc3c(c2)NC(=O)CS3)cc1S(=O)(=O)Nc1ccc(Br)cc1,"22.4 µM [falling, single point]",
O=C(CCN1CCCCC1)NNC(=S)NC(=O)c1ccc(Br)cc1,"35.5 µM [falling, single point]",
O=C1C=C(c2ccc3[nH]ccc3c2)C[C@@H](c2ccc(F)cc2)C1,"0.58 µM [rising, full curve]",
O=c1c(-c2ccccc2)c[nH]n1-c1cccc([N+](=O)[O-])c1,"1.78 µM [falling, full curve]",
O=C(/C=C/c1ccccc1)NC1CCCc2ccccc21 (stereo not drawn),"0.891 µM [falling, full curve, poor fit]",
CN(N=Nc1cccc([N+](=O)[O-])c1)c1cccc([N+](=O)[O-])c1,"2.82 µM [rising, full curve]",

SMILES,AC50 [1],AC50 [2]
COc1ccc(CCNC(=O)CC2SC(=NCCc3ccccc3)NC2=O)cc1OC (stereo not drawn),"2.31 µM [rising, partial curve, poor fit]",
O=C(CCCCCCCCC(=O)N/N=C/c1ccco1)N/N=C/c1ccco1,"23.1 µM [falling, single point]",
COc1ccc(OC)c(NC(=O)CNC(=O)Cn2c(C)cc3ccccc3c2=O)c1,"0.92 µM [falling, full curve, poor fit]",
CC(O)c1cccc(NC(=O)C2CCCCC2)c1 (stereo not drawn),"35.5 µM [rising, partial curve, poor fit]",
Cc1ccc(NC(=O)/C=C/c2ccc([N+](=O)[O-])s2)c(C)c1,"6.51 µM [falling, partial curve, poor fit]",
Cc1ccsc1/C=N/NC(=O)Nc1ccccc1,"14.1 µM [falling, single point]",
C[C@@H](C(=O)NCc1ccccc1)N1C(=O)C2CC=CCC2C1=O (stereo partly drawn),"0.291 µM [rising, full curve, poor fit]",
CC(C)(C)C(=O)Nc1nc(-c2ccccc2)ns1,"7.31 µM [falling, partial curve, poor fit]","0.731 µM [rising, full curve]"
Cc1oc(-c2ccccc2F)nc1CN1CCC(C(=O)NCc2cccs2)CC1,"17.8 µM [rising, partial curve, poor fit]",
COc1ccc(C(=O)OCCNC(=O)c2c(Cl)nc3ccccn23)cc1,"15.8 µM [rising, single point]",
COc1cccc(OC)c1C(=O)Nc1cccc(-c2ccc3nncn3n2)c1,"35.5 µM [rising, partial curve, poor fit]",
COc1ccc(C2=CSC3=NNC4(CCCCC4)NN23)cc1,"35.5 µM [rising, single point]",
Nc1cc(=O)[nH]c(SCC(=O)Nc2nnc(-c3ccccc3)s2)n1,"11.2 µM [falling, partial curve]",
Cc1c(NC(=O)c2ccc3c(c2)OCO3)cccc1-c1nc2ncccc2o1,"0.92 µM [falling, full curve]",
Cc1cc(N2CCN(C(=O)c3cccs3)CC2)c(F)cc1[N+](=O)[O-],"35.5 µM [falling, single point]",
Cc1cccc(N2CCN(CC(=O)NCc3ccc(Cl)cc3)CC2)c1C,"11.2 µM [falling, partial curve, poor fit]",
COC(=O)CNc1c(-c2ccccn2)nc2ccc(Br)cn12,"0.146 µM [falling, full curve, poor fit]",
CCn1c(O)c(N=NC(=O)CNc2cccc(C)c2)c2ccccc21,"32.6 µM [falling, single point]",
CCCOc1ccc(/C=N/Nc2cccc([N+](=O)[O-])c2)c(O)c1,"6.51 µM [rising, single point]",
O=C(CC1CC2CCC1C2)Nc1nc(-c2ccccn2)cs1 (stereo not drawn),"0.891 µM [falling, full curve, poor fit]","3.98 µM [rising, partial curve, poor fit]"

# Fetched one by one from above, 2 records:
SMILES,AC50 [1],AC50 [2]
Cc1cc(N2CCN(C(=O)c3cccs3)CC2)c(F)cc1[N+](=O)[O-],"35.5 µM [falling, single point]",
Cc1ccc(NC(=O)/C=C/c2ccc([N+](=O)[O-])s2)c(C)c1,"6.51 µM [falling, partial curve, poor fit]",

# — PubChem BioAssay AID493014 (National Center for Advancing Translational Sciences (NCATS), 2011)
